Values of other authors in patent US20130217132A1, “METHODS, COMPOSITIONS AND USE FOR ENHANCING CHEMICAL TOLERANCE BY MICROORGANISMS” (priority 2009, published 2013).

System: E. coli
Details: E. coli inhibition, acetate compared to benzoate; cited from earlier work

Structure (SMILES)	pHi at which the same growth rate was observed
CC(=O)O [acetate, acetic acid]	7.48
O=C(O)c1ccccc1 [benzoate]	7.26
